PubChem BioAssay AID1224831 | NIAID | 2016

- Purpose: 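Retesting screen hits on the TLR4-driven TNF response with six separate siRNAs each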 (follow-up of hits)
- Cells: human THP-1 B5 monocytic leukaemia cells carrying a TNF promoter luciferase reporter, made macrophage-like with PMA
- Knock-down reagent: single siRNA against human genes, 50 nM
- Duration: about 68 h of knock-down, then 4 h LPS
- Challenge: LPS (Salmonella minnesota, TLR-grade) at 10 ng/ml for 4 h; PMA 5 ng/ml present during knock-down
- Read-out: 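TNF promoter reporter read as dual luciferase ratio after 4 h LPS, normalised per plate to its median, given as replicate mean robust z-score per siRNA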
- Scale: TNF reporter z-score: higher = stronger LPS-induced TNF reporter signal; z-score, median over gene's siRNAs: higher = stronger TNF reporter signal across the gene's siRNAs
- Rule for the call: 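Active when the replicate mean z-score is about -1 or lower, or about 1.5 or higher; lowered and raised TNF reporter signal both count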
- Calls: active = changed TNF reporter (either direction); inactive = little change
The whole screen tested about 3,500 reagents; shown is a random part of them. Of all reagents, 731 (21%) were called active. 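Active means either lowered or raised reporter signal; the gene-median score did not drive the per-siRNA calls.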 Entries without a mark were called inactive. The numbers tell different reagents against one gene apart.

gene | reagent | TNF reporter z-score, replicate mean | z-score, median over gene's siRNAs
PLXNA1 | 1 | -1.25 (active) | -0.37
PLXNA1 | 2 | 0.33 | -0.37
PLXNA1 | 3 | -0.87 | -0.37
PLXNA1 | 4 | -0.37 | -0.37
PLXNA1 | 5 | -0.37 | -0.37
PLXNA1 | 6 | 1.47 | -0.37
DRC1 | 1 | -0.3 | -0.195
DRC1 | 2 | -0.04 | -0.195
DRC1 | 3 | -2.09 (active) | -0.195
DRC1 | 4 | -0.4 | -0.195
DRC1 | 5 | -0.09 | -0.195
DRC1 | 6 | 0.25 | -0.195
PHC2 | 1 | -0.5 | -0.205
PHC2 | 2 | 1.24 | -0.205
PHC2 | 3 | -0.26 | -0.205
PHC2 | 4 | -0.15 | -0.205
PHC2 | 5 | 1.51 (active) | -0.205
PHC2 | 6 | -0.31 | -0.205
ITGB3 | 1 | -0.25 | -0.055
ITGB3 | 2 | -0.34 | -0.055
ITGB3 | 3 | 0.41 | -0.055
ITGB3 | 4 | 0.14 | -0.055
ITGB3 | 5 | 0.83 | -0.055
ITGB3 | 6 | -0.67 | -0.055
GNAI3 | 1 | -0.34 | -0.32
GNAI3 | 2 | 0.16 | -0.32
GNAI3 | 3 | -0.06 | -0.32
GNAI3 | 4 | -0.3 | -0.32
GNAI3 | 5 | -0.46 | -0.32
GNAI3 | 6 | -0.61 | -0.32
OR2B3 | 1 | 0.63 | 0.46
OR2B3 | 2 | 0.64 | 0.46
OR2B3 | 3 | -0.39 | 0.46
OR2B3 | 4 | 0.67 | 0.46
OR2B3 | 5 | -0.62 | 0.46
OR2B3 | 6 | 0.29 | 0.46
COL1A2 | 1 | -0.11 | -0.065
COL1A2 | 2 | -0.85 | -0.065
COL1A2 | 3 | -0.09 | -0.065
COL1A2 | 4 | 2.64 (active) | -0.065
COL1A2 | 5 | -0.04 | -0.065
COL1A2 | 6 | 1.62 (active) | -0.065
TYR | 1 | 0.88 | 0.665
TYR | 2 | 2.65 (active) | 0.665
TYR | 3 | 0.45 | 0.665
TYR | 4 | -0.21 | 0.665
TYR | 5 | 2.79 (active) | 0.665
TYR | 6 | -0.41 | 0.665
DNAJC25-GNG10 | 1 | 0.09 | 0.005
DNAJC25-GNG10 | 2 | 0.24 | 0.005
DNAJC25-GNG10 | 3 | -0.08 | 0.005
DNAJC25-GNG10 | 4 | 1.27 | 0.005
DNAJC25-GNG10 | 5 | -0.12 | 0.005
DNAJC25-GNG10 | 6 | -0.09 | 0.005
MED21 | 1 | -1.01 (active) | -0.475
MED21 | 2 | -0.11 | -0.475
MED21 | 3 | -0.36 | -0.475
MED21 | 4 | -0.42 | -0.475
MED21 | 5 | -1.18 (active) | -0.475
MED21 | 6 | -0.53 | -0.475
ZDHHC1 | 1 | -0.12 | -0.005
ZDHHC1 | 2 | 0.9 | -0.005
ZDHHC1 | 3 | -0.46 | -0.005
ZDHHC1 | 4 | 0.74 | -0.005
ZDHHC1 | 5 | 0.11 | -0.005
ZDHHC1 | 6 | -0.35 | -0.005
RNF38 | 1 | -0.29 | 0.08
RNF38 | 2 | 0.12 | 0.08
RNF38 | 3 | -0.71 | 0.08
RNF38 | 4 | 0.15 | 0.08
RNF38 | 5 | 0.04 | 0.08
RNF38 | 6 | 0.61 | 0.08
MYBL2 | 1 | -0.33 | 0.44
MYBL2 | 2 | 0.63 | 0.44
MYBL2 | 3 | 0.42 | 0.44
MYBL2 | 4 | 0.73 | 0.44
MYBL2 | 5 | -1.21 (active) | 0.44
MYBL2 | 6 | 0.46 | 0.44
IFIT1 | 1 | 1.64 (active) | 1.33
IFIT1 | 2 | 2.01 (active) | 1.33
IFIT1 | 3 | 0.7 | 1.33
IFIT1 | 4 | 1.03 | 1.33
IFIT1 | 5 | 1.84 (active) | 1.33
IFIT1 | 6 | 0.17 | 1.33
